The other results are listed elsewhere or left out.

The chains behind the UniProt entries cited, without tags or fusion partners. Where a name states a change or a piece, a line headed by the entry shows the natural chain unless it says otherwise.
UniProt P12694: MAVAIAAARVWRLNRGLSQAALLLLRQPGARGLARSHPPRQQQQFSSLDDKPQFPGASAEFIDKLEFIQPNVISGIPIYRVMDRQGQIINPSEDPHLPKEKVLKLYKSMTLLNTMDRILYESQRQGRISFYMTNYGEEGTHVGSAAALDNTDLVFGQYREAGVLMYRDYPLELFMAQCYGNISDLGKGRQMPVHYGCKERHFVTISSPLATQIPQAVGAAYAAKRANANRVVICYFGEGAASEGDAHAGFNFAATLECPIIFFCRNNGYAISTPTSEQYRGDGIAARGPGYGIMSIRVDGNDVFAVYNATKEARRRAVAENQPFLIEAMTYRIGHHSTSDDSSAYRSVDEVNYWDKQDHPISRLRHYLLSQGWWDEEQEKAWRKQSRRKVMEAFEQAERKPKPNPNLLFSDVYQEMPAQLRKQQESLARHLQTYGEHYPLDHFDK
UniProt Q9NT62, whole entry: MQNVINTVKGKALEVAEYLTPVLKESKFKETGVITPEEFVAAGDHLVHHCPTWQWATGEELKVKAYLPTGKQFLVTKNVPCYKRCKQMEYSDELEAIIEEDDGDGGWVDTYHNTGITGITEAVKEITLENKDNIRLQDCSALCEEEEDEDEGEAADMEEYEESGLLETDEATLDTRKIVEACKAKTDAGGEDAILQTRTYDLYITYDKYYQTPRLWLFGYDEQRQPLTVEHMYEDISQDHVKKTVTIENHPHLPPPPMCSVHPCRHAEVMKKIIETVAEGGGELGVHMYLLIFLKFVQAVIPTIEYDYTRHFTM
UniProt Q5JUR7: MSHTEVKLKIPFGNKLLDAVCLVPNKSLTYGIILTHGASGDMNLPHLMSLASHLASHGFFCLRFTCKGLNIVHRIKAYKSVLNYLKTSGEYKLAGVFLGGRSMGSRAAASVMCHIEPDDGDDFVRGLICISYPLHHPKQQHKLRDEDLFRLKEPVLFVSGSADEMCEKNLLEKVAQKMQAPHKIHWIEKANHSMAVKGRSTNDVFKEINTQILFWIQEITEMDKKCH
UniProt Q96G01: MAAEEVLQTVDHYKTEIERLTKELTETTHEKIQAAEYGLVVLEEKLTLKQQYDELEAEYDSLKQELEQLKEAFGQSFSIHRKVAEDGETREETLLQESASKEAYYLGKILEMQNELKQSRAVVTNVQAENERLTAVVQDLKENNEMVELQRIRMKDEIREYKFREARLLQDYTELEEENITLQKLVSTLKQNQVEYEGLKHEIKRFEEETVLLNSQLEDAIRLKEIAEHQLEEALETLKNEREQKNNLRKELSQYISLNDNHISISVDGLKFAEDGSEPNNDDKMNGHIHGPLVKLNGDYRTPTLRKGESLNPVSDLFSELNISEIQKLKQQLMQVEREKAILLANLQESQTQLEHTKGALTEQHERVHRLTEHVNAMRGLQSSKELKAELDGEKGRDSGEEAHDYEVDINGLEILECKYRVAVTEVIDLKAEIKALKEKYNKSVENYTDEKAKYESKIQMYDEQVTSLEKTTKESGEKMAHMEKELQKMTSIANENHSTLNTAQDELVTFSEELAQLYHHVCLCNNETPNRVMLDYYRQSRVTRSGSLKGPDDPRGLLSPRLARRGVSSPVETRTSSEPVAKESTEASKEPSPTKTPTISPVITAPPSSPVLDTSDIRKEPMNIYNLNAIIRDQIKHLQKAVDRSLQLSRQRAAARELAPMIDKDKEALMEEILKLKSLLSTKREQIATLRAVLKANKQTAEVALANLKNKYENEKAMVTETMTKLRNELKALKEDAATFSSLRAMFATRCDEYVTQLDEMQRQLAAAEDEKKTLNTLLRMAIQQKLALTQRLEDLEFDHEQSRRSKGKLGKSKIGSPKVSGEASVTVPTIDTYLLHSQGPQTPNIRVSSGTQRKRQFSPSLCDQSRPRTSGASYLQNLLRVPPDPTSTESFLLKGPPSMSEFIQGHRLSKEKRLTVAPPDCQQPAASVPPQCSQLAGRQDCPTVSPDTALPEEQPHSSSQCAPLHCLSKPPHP
UniProt Q7L266: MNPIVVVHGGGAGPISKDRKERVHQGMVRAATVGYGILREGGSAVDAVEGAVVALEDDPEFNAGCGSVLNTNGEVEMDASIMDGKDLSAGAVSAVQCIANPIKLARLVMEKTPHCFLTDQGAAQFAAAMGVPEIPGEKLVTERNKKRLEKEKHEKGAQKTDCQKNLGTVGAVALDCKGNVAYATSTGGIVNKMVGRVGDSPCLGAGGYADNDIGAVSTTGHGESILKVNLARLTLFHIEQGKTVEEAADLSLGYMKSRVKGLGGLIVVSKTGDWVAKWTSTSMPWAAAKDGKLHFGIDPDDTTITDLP
UniProt Q9Y294, whole entry: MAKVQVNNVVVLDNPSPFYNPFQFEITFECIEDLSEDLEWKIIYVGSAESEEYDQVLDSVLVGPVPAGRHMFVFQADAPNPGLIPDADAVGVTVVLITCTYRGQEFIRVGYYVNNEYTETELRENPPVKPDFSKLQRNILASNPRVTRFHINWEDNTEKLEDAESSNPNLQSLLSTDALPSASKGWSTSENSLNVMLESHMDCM
UniProt Q8TD16, whole entry: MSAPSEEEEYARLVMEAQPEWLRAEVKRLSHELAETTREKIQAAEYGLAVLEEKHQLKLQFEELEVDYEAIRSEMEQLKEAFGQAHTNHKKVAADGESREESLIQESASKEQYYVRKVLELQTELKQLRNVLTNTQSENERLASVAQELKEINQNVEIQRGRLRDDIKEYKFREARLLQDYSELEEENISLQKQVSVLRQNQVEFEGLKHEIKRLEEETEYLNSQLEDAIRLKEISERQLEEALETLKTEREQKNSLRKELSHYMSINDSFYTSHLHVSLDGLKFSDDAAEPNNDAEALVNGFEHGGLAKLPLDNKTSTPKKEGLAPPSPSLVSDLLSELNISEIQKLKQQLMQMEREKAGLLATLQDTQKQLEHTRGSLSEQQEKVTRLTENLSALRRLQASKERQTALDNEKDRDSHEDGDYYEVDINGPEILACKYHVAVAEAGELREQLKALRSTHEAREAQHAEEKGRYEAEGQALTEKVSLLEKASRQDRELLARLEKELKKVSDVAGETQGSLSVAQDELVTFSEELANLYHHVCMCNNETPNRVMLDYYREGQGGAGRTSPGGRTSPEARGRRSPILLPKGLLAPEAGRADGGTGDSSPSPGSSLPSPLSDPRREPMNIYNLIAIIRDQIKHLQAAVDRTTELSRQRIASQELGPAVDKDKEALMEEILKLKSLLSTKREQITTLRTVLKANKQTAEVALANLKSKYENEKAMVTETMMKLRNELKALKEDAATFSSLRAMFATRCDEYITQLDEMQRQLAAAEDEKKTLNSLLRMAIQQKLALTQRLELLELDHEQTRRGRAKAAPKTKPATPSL
UniProt Q9BPX5, whole entry: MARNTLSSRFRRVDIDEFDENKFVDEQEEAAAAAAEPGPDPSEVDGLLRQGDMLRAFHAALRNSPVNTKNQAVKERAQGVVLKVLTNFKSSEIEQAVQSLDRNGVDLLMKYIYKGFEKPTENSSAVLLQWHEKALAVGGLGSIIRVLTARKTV
UniProt Q9BZE9, whole entry: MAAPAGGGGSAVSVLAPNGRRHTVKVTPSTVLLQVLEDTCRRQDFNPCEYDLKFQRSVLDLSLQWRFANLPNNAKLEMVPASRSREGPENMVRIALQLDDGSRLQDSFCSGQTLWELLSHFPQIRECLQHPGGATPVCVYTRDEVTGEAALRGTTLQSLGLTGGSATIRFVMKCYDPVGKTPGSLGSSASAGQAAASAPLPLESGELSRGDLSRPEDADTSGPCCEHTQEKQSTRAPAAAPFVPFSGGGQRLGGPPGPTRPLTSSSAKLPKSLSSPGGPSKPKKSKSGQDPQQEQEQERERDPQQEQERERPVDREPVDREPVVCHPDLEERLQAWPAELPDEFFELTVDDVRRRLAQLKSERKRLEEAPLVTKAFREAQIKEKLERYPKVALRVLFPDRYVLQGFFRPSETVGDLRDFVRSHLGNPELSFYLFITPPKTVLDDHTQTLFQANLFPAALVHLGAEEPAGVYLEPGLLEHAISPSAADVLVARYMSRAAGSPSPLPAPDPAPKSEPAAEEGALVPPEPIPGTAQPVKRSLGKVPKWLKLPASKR
UniProt Q92843: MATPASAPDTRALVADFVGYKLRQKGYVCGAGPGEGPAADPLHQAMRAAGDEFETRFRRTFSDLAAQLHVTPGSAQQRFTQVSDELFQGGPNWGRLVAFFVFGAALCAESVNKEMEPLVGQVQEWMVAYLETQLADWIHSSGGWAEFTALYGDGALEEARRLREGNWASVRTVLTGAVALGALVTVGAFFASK
UniProt Q9UII2: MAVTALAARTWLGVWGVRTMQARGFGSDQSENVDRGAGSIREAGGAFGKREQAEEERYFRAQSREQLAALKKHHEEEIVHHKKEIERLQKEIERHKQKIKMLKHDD
UniProt Q07812, whole entry: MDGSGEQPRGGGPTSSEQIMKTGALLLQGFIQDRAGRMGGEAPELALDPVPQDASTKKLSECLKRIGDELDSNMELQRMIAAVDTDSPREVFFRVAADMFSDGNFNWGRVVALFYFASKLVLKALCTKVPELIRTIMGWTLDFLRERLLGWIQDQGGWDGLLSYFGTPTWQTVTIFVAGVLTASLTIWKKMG
UniProt P49407: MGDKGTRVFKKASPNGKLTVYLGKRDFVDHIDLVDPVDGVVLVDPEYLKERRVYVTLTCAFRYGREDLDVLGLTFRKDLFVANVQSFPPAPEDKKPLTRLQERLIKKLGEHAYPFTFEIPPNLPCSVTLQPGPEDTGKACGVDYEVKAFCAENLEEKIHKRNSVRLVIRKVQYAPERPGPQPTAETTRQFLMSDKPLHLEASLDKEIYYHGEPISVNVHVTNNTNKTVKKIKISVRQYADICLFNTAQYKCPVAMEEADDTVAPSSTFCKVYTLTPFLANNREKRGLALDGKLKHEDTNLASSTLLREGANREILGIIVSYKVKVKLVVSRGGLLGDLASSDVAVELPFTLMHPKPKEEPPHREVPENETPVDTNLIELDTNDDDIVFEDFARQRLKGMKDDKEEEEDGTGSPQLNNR
UniProt P51572: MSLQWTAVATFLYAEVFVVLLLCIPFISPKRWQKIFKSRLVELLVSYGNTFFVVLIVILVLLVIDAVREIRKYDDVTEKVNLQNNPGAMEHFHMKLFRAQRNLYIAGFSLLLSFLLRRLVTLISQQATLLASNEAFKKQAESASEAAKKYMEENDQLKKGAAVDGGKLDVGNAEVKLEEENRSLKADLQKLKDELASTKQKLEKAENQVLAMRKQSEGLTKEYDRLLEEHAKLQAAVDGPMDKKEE
UniProt Q15059, whole entry, looked up: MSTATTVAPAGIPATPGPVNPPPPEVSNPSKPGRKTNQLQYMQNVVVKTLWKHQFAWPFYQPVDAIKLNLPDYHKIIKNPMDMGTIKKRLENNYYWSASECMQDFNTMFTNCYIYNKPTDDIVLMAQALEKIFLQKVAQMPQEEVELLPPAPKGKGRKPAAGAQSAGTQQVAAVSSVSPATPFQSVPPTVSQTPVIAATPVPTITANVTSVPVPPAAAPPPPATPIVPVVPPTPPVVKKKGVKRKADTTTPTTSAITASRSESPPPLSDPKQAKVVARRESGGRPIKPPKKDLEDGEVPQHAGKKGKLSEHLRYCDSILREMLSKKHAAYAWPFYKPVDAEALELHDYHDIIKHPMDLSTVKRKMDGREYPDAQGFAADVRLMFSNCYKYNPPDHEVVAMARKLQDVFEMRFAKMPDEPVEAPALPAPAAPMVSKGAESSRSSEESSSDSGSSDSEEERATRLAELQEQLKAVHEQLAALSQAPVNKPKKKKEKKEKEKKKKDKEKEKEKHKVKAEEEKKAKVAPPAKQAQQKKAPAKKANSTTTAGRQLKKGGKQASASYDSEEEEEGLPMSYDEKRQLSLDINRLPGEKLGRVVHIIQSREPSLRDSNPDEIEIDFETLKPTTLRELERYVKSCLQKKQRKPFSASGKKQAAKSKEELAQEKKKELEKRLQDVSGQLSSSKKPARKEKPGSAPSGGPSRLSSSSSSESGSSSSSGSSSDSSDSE
UniProt A2VDF0: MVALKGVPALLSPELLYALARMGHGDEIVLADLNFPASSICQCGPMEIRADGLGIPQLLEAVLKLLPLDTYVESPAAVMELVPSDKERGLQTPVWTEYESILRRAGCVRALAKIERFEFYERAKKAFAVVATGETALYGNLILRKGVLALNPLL
UniProt O95429: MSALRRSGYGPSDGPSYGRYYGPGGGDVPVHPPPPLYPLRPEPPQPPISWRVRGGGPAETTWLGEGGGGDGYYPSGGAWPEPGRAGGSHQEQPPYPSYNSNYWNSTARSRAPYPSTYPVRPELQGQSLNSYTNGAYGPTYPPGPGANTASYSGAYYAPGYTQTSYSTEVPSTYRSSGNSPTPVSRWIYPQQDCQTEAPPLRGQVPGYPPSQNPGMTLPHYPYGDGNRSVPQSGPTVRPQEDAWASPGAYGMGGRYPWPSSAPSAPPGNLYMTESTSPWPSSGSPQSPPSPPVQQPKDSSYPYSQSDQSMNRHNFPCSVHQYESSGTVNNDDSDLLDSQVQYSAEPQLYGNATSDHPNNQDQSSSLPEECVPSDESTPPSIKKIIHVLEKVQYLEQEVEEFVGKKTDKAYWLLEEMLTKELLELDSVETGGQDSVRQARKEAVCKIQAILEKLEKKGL
UniProt O75531: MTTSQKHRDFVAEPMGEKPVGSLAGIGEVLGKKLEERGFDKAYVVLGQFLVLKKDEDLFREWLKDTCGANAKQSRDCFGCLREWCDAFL

Compound in the test: COc1ccc(Cn2ccc3ccc(C(=O)NO)cc32)cc1
Put plainly: dose-dependent thermal stabilisation call (2D-TPP, DLPTP, 10% FDR) (binary (1 = stabilised)); higher = stabilised by the compound. The conditions noted are these: system: HL-60 intact cells; concentration range 0.04-10 µM.
Turning to ASNS (UniProt P08243), the “dose-dependent thermal stabilisation call” value was inactive: 0.

Consider BCKDHA (UniProt P12694), for which the “dose-dependent thermal stabilisation call” value was inactive: 0. The same measure for BAZ1B (UniProt Q9UIG0): inactive: 0; for ATG3 (UniProt Q9NT62): inactive: 0; for C13ORF27 (UniProt Q5JUR7): inactive: 0. BRD7 (UniProt Q9NPI1): the “dose-dependent thermal stabilisation call” value is inactive: 0.

For the target BICD1 (UniProt Q96G01), the “dose-dependent thermal stabilisation call” value was inactive: 0.

Turning to ASRGL1 (UniProt Q7L266), the “dose-dependent thermal stabilisation call” value is inactive: 0.

On to ASCC3 (UniProt Q8N3C0), for which the “dose-dependent thermal stabilisation call” value is inactive: 0. ATL2 (UniProt Q8NHH9): the “dose-dependent thermal stabilisation call” value is inactive: 0. For ASF1A (UniProt Q9Y294), the “dose-dependent thermal stabilisation call” value was inactive: 0.

Regarding B3GALT6 (UniProt Q96L58), the “dose-dependent thermal stabilisation call” value is inactive: 0.

As to ARPP-19, the “dose-dependent thermal stabilisation call” value was inactive: 0. As for ARL6IP6 (UniProt Q8N6S5), the “dose-dependent thermal stabilisation call” value was inactive: 0. BICD2 (UniProt Q8TD16): the “dose-dependent thermal stabilisation call” value was inactive: 0.

ARPC5L (UniProt Q9BPX5): the “dose-dependent thermal stabilisation call” value was inactive: 0. Turning to ASPSCR1 (UniProt Q9BZE9), the “dose-dependent thermal stabilisation call” value is inactive: 0. For the target BTAF1 (UniProt O14981), the “dose-dependent thermal stabilisation call” value was inactive: 0.

In the case of AZI1 (UniProt Q9UPN4), the “dose-dependent thermal stabilisation call” value was inactive: 0.

ATN1 (UniProt P54259): the “dose-dependent thermal stabilisation call” value was inactive: 0. With ATP6AP2 (UniProt O75787), the “dose-dependent thermal stabilisation call” value was inactive: 0. As for BCL2L2 (UniProt Q92843), the “dose-dependent thermal stabilisation call” value is inactive: 0.

With UniProt B4E0R8_HUMAN, the “dose-dependent thermal stabilisation call” value was inactive: 0. With ATPIF1 (UniProt Q9UII2) the figure was inactive: 0; with B4GALT7 (UniProt Q9UBV7), inactive: 0; with ATP6V0C (UniProt P27449), inactive: 0. BAX (UniProt Q07812): the “dose-dependent thermal stabilisation call” value was inactive: 0. The same measure for ARRB1 (UniProt P49407): inactive: 0; for C10ORF104 (UniProt Q96DE5): inactive: 0; for BCAP31 (UniProt P51572): inactive: 0. In the case of BRD3 (UniProt Q15059), the “dose-dependent thermal stabilisation call” value is inactive: 0. Consider C10ORF125 (UniProt A2VDF0), for which the “dose-dependent thermal stabilisation call” value is inactive: 0. As to ASXL2 (UniProt Q76L83), the “dose-dependent thermal stabilisation call” value was inactive: 0. For BCL2L1 (UniProt Q07817), the “dose-dependent thermal stabilisation call” value is inactive: 0. The same measure for BAG4 (UniProt O95429): inactive: 0. With ATG4B (UniProt Q9Y4P1) the figure was inactive: 0. BANF1 (UniProt O75531): the “dose-dependent thermal stabilisation call” value is inactive: 0.

The values above are taken from the supplement of paper PMC7666118.
